Results reported in PubChem BioAssay AID344 (DTP/NCI, 2004).
The list does not hold the whole screen: it covers a few groups of compounds. Other doses and runs of a compound may be missing. T/C: endpoint of the treated group in % of that of the vehicle group. For survival time, the PubChem record calls one and a half times the control and up active, and a quarter to a half above the control has no call in these data; cut-offs in other NCI protocols can differ. Some T/C values are marked as having no survivor count here; that says nothing about deaths at the dose. Schedule codes are those of the source, taken here to give the interval after Q, in days (D) or hours (H), and the number of doses after X.

Tested on: mice, LPC-1 plasma cell tumor ip, median survival T/C
Assay: NCI In Vivo Anticancer Drug Screen. Data for tumor model Lieberman Plasma Cell No. 1 (LPC-1) (intraperitoneal) in unknown mice
Conditions: T/C endpoint: median survival time, higher T/C = longer survival
Procedure: The antitumor activity of compounds was measured in mice bearing transplantable tumors. Survival or tumor size were measured and the results are expressed as the measurement made in the treated group (T) divided by the measurement made in the vehicle treated control group (C). The tumor model used in this assay is Lieberman Plasma Cell No. 1 (LPC-1) (intraperitoneal) in unknown mice

## NC1CCCCC1.NP(=O)(O)N(CCCl)CCCl
dose: 6.0 mg/kg/injection, schedule: Q01DX028 (sc), vehicle: saline
  T/C: 105 % of control [survivor count not shown]
dose: 11.0 mg/kg/injection, schedule: Q01DX028 (sc), vehicle: saline
  T/C: 137 % of control [survivor count not shown]
dose: 22.0 mg/kg/injection, schedule: Q01DX028 (sc), vehicle: saline
  T/C: 148 % of control [survivor count not shown]
dose: 44.0 mg/kg/injection, schedule: Q01DX028 (sc), vehicle: saline
  T/C: 102 % of control [survivor count not shown]

## NC(Cc1ccccc1N(CCCl)CCCl)C(=O)O (stereo not drawn)
dose: 0.5 mg/kg/injection, schedule: Q01DX028 (sc), vehicle: saline
  T/C: 165 % of control [survivor count not shown]
dose: 0.8 mg/kg/injection, schedule: Q01DX028 (sc), vehicle: saline
  T/C: 220 % of control [survivor count not shown]
dose: 1.3 mg/kg/injection, schedule: Q01DX028 (sc), vehicle: saline
  T/C: 134 % of control [survivor count not shown]
dose: 2.0 mg/kg/injection, schedule: Q01DX028 (sc), vehicle: saline
  T/C: 111 % of control [survivor count not shown]

## NC(Cc1cccc(N(CCCl)CCCl)c1)C(=O)O (stereo not drawn)
dose: 1.8 mg/kg/injection, schedule: Q01DX028 (sc), vehicle: saline
  T/C: 121 % of control [survivor count not shown]
dose: 5.0 mg/kg/injection, schedule: Q01DX028 (sc), vehicle: saline
  T/C: 94 % of control [survivor count not shown]
dose: 14.0 mg/kg/injection, schedule: Q01DX028 (sc), vehicle: saline
  T/C: 94 % of control [survivor count not shown]

## COc1ccc(N(CCCl)CCCl)cc1
dose: 7.5 mg/kg/injection, schedule: Q01DX001 (sc), vehicle: carboxymethylcellulose (CMC)
  T/C: 130 % of control [survivor count not shown]
dose: 15.0 mg/kg/injection, schedule: Q01DX001 (sc), vehicle: carboxymethylcellulose (CMC)
  T/C: 108 % of control [survivor count not shown]
dose: 30.0 mg/kg/injection, schedule: Q01DX001 (sc), vehicle: carboxymethylcellulose (CMC)
  T/C: 116 % of control [survivor count not shown]
dose: 40.0 mg/kg/injection, schedule: Q01DX001 (oral), vehicle: carboxymethylcellulose (CMC)
  T/C: 117 % of control [survivor count not shown]
dose: 40.0 mg/kg/injection, schedule: Q04DX008 (oral), vehicle: carboxymethylcellulose (CMC)
  T/C: 111 % of control [survivor count not shown]
dose: 40.0 mg/kg/injection, schedule: Q08DX004 (oral), vehicle: carboxymethylcellulose (CMC)
  T/C: 108 % of control [survivor count not shown]
dose: 60.0 mg/kg/injection, schedule: Q01DX001 (sc), vehicle: carboxymethylcellulose (CMC)
  T/C: 122 % of control [survivor count not shown]
dose: 80.0 mg/kg/injection, schedule: Q01DX001 (oral), vehicle: carboxymethylcellulose (CMC)
  T/C: 141 % of control [survivor count not shown]
dose: 80.0 mg/kg/injection, schedule: Q04DX008 (oral), vehicle: carboxymethylcellulose (CMC)
  T/C: 191 % of control [survivor count not shown]
dose: 80.0 mg/kg/injection, schedule: Q08DX004 (oral), vehicle: carboxymethylcellulose (CMC)
  T/C: 179 % of control [survivor count not shown]
dose: 120.0 mg/kg/injection, schedule: Q01DX001 (sc), vehicle: carboxymethylcellulose (CMC)
  T/C: 125 % of control [survivor count not shown]
dose: 160.0 mg/kg/injection, schedule: Q01DX001 (oral), vehicle: carboxymethylcellulose (CMC)
  T/C: 214 % of control [survivor count not shown]
dose: 160.0 mg/kg/injection, schedule: Q04DX008 (oral), vehicle: carboxymethylcellulose (CMC)
  T/C: 132 % of control [survivor count not shown]
dose: 160.0 mg/kg/injection, schedule: Q08DX004 (oral), vehicle: carboxymethylcellulose (CMC)
  T/C: 288 % of control [survivor count not shown]
dose: 320.0 mg/kg/injection, schedule: Q01DX001 (oral), vehicle: carboxymethylcellulose (CMC)
  T/C: 152 % of control [survivor count not shown]
dose: 320.0 mg/kg/injection, schedule: Q04DX008 (oral), vehicle: carboxymethylcellulose (CMC)
  T/C: 108 % of control [survivor count not shown]
dose: 320.0 mg/kg/injection, schedule: Q08DX004 (oral), vehicle: carboxymethylcellulose (CMC)
  T/C: 129 % of control [survivor count not shown]
